Binding data for one molecule are collected here from paper PMC9166893.

These are yes or no findings as the source states them, for the method shown. In cells and extracts the contact can be indirect.

The test has as its target CLASPIN (CLSPN), endogenous in rat H9c2-CK2α-44 myoblasts (rat (endogenous in H9c2)). The experiment in a line: co-IP; 1 mg whole cell lysate of H9c2-CK2α-44 cells, immunoprecipitation with mouse monoclonal anti-CLSPN, Western blot; control cells and cells with 3 mM HU for 4 h. A general note: A western blot detects proteins with antibodies after separation by electrophoresis.

B1: checkpoint kinase CHK1, endogenous in rat H9c2-CK2α-44 myoblasts (enzyme, UniProt Q91ZN7 1-476)
chain: MAVPFVEDWDLVQTLGEGAYGEVQLAVNRITEEAVAVKIVDMKRAIDCPENIKKEICINKMLNHENVVKFYGHRREGNIQYLFLEYCSGGELFDRIEPDIGMPEQDAQRFFHQLMAGVVYLHGIGITHRDIKPENLLLDERDNLKISDFGLATVFRHNNRERLLNKMCGTLPYVAPELLKRKEFHAEPVDVWSCGIVLTAMLAGELPWDQPSDSCQEYSDWKEKKTYLNPWKKIDSAPLALLHKILVENPSARITIPDIKKDRWYNKPLNRGAKRPRATSGGMSESSSGFSKHIHSNLDFSPINSGSSEENVKFSSSQPEPRTGLSLWDTGPSNVDKLVQGISFSQPTCPDHMLVNSQLLGTPGSSQNPWQRLVKRMTRFFTKLDADKSYQCLKETFEKLGYQWKKSCMNQVTVSTMDRRNNKLIFKINLVEMDEKILVDFRLSKGDGLEFKRHFLKIKGKLSDIVSSQKVWFPVT
As to B1, the binding result is “no binding”.
